In publication PMC9817759 one finds binding data, which are given here for six substances.

By UniProt entry, the sequences of proteins in these tests, tags left out.
UniProt Q15418: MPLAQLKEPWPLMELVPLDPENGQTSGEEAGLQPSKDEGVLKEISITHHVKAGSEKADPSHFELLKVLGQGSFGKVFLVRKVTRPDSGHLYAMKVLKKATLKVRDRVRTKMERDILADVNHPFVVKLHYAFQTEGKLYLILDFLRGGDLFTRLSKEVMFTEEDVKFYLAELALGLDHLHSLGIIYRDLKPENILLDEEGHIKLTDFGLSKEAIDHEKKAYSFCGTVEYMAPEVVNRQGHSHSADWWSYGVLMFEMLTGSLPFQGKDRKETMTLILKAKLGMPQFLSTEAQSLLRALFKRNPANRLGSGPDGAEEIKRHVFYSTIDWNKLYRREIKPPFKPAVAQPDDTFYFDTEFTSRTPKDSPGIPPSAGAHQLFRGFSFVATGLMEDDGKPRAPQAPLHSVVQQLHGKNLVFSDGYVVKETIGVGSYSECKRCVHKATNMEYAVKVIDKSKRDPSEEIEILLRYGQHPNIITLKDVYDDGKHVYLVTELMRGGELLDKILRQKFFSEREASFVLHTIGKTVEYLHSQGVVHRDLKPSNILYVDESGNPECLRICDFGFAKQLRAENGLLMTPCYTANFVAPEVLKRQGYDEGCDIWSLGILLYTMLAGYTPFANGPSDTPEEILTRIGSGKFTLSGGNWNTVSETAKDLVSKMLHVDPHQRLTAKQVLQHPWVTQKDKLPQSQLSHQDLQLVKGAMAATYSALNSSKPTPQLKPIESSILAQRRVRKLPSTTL
UniProt Q00987: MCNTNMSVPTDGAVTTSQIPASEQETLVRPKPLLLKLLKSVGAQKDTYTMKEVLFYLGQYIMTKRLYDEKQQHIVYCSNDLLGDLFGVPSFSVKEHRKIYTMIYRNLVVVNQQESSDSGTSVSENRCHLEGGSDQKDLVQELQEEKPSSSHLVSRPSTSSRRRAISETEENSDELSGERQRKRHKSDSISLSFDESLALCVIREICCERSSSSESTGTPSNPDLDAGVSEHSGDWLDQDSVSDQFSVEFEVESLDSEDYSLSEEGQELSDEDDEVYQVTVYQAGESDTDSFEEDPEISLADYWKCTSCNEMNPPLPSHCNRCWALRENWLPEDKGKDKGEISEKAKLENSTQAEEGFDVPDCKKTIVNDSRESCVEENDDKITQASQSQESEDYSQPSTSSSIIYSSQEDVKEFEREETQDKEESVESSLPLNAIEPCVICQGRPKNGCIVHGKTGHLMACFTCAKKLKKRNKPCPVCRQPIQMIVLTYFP
UniProt P51812: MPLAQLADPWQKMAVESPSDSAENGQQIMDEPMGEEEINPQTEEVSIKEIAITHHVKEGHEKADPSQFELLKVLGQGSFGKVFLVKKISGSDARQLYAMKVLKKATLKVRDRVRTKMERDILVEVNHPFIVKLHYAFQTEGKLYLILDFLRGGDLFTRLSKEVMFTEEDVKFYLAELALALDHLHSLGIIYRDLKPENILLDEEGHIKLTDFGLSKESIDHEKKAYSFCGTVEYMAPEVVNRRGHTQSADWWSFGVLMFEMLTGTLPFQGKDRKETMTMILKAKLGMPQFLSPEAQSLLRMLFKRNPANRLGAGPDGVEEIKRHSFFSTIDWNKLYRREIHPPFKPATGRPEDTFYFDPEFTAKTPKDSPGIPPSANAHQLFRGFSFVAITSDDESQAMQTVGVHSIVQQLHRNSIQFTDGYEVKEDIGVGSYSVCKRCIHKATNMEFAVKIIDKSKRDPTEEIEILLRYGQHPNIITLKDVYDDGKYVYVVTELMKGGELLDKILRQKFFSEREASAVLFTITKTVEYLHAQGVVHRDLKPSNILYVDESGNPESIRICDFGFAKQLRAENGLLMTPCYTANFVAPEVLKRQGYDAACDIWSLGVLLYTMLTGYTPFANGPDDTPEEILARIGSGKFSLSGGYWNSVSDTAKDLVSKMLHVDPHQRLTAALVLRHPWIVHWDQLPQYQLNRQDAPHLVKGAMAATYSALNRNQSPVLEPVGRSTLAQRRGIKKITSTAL

No constants are given. Whether binding was seen depends on the method and setting. For some assays here: In cells and extracts the contact can be indirect. Some entries that bind do so weakly or less than the wild type.

Assay [1] deals with active recombinant p90RSK1 (RSK active, SignalChem cat. R15-10G) (UniProt Q15418). Put plainly: co-IP; recombinant RSK1 and MDM2 mixed in vitro; immunoprecipitated with anti-RSK1 or anti-MDM2, blotted with anti-MDM2 and anti-RSK1; with or without BI-D1870 (1 and 5 µM); both purified.
Assay [2] concerns the target Recombinant Human GST MDM2/HDM2 (BostonBiochem cat. E3-202) (human) (UniProt Q00987). The description is as above.
Assay [3] has as its target endogenous MDM2 of HEK293 cells (human (endogenous in HEK293)) (UniProt Q00987). As to the kind of experiment: co-IP; HEK293 cells transfected with constitutively active myristylated RSK1 or RSK2; lysate immunoprecipitated with anti-MDM2, blotted with anti-RSK1 and anti-RSK2.
Assay [4] deals with endogenous p90RSK (RSK1) of TPC1 and other thyroid tumor cell lines (human (endogenous in TPC1)) (UniProt Q15418). As to the kind of experiment: co-IP; experiments of TPC1 repeated in other thyroid tumor lines (CAL62, BCPAP, SW1736, 8505C); supplementary Figures S1 and S2.
For assay [5] the target is unchanged. As to the kind of experiment: co-IP; endogenous proteins of TPC1 cells; immunoprecipitated with anti-RSK1 or anti-MDM2, control IgG lane; also cells treated for 1 h with BI-D1870 (4, 10 µM).
Assay [6] concerns the target endogenous MDM2 of TPC1 and other thyroid tumor cell lines (human (endogenous in TPC1)) (UniProt Q00987). Put plainly: co-IP; experiments of TPC1 repeated in other thyroid tumor lines (CAL62, BCPAP, SW1736, 8505C); supplementary Figures S1 and S2.
The target is the same in assay [7]. As to the kind of experiment: co-IP; endogenous proteins of TPC1 cells; immunoprecipitated with anti-RSK1 or anti-MDM2, control IgG lane; also cells treated for 1 h with BI-D1870 (4, 10 µM).

For the substance “Recombinant Human GST MDM2/HDM2 (BostonBiochem cat. E3-202) (from UniProt Q00987 1-491) (enzyme)”, in assay [1], the binding result was “binds”.
With “active recombinant p90RSK1 (RSK active, SignalChem cat. R15-10G) (from UniProt Q15418 1-735) (enzyme)”, the binding result in assay [2] is reported as “binds”.
With “constitutively active myristilated RSK1 (p90RSK1 in the pRK7-myr expression vector) (from UniProt Q15418 1-735) (enzyme)”, in assay [3], the binding entry is on record as “binds”.
Still for that read-out and setting: the value for “constitutively active myristilated RSK2 (p90RSK2 in the pWZL-neo-myr-flag expression vector) (from UniProt P51812 1-740) (enzyme)” was “binds”.
In the case of “endogenous MDM2 of TPC1 and other thyroid tumor cell lines (from UniProt Q00987 1-491)”, the binding result in assay [4] and in assay [5] was “binds” in each case.
In the case of “endogenous p90RSK (RSK1) of TPC1 and other thyroid tumor cell lines (from UniProt Q15418 1-735) (enzyme)”, the binding entry in assay [6] and in assay [7] was “binds” in each case.
